The other results are listed elsewhere or left out. Shown are side measurements of this screen, not its main read-out; they come without a call. Most of these compounds were active or inconclusive in the main read-out, so they are no random draw. Words in brackets tell the shape of the fitted curve; partial curves, single points and poor fits give uncertain potencies.
Assay: qHTS Assay for Lipid Storage Modulators in Drosophila S3 Cells;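 for cell number change: cells counted by Cell Tracker Red CMTPX staining in the red channel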
Settings: BODIPY lipid droplet fluorescence, 18-24 h; for cell number change: measured here: cell count max response, cells fed with added oleic acid
Summary of the method: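 Laser-scanning cytometry quantifies lipid droplet accumulation (500–530 nm total intensity; droplet/cell object ratio) in oleic acid-fed (400 uM added) Drosophila S3 cells treated with a concentration series. 20 uM Triacsin C defined 100% inhibition.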

[1] = measured here: cell number channel AC50, cells fed with added oleic acid
[2] = measured here: lipid fluorescence (Fed channel) AC50, cells fed with added oleic acid

SMILES | cell number change | AC50 [1] | AC50 [2]
COc1ccccc1CN1CCN(C(=O)c2ccncc2)CC1 | -47.3% | 0.116 µM [falling, full curve] | 0.731 µM [falling, full curve]
COc1ccc(C2C(C#N)=C3NC(=O)c4c(sc5c4CCCCC5)N3C3=C2C(=O)CC(C)(C)C3)cc1 (stereo not given) | 7.87% | – | 29.1 µM [falling, single point]
Cc1ccc(NC(=O)C2CCCN(S(=O)(=O)c3cnc[nH]3)C2)c(Br)c1 (stereo not given) | – | – | 16.4 µM [rising, single point]
COc1ccc(S(=O)(=O)N(C)CC(=O)N2CCC(C)CC2)cc1Cl | 0.219% | – | 11.6 µM [rising, partial curve]
CCCCC(=O)N/N=C(\C)CC(=O)Nc1ccccc1Br | – | – | 13 µM [rising, partial curve]
O=C(O)c1c2c(nc3ccccc13)/C(=C/c1ccccc1[N+](=O)[O-])CCC2 | -1.59% | – | –
NC(=O)N/N=C/c1ccccc1OCc1cccc2ccccc12 | 51.6% | 29.1 µM [rising, single point] | 1.3 µM [falling, partial curve]
CC(C)(OC(=O)c1ccc(F)cc1)c1cc2ccccc2c(=O)o1 | 6.92% | – | 0.0058 µM [rising, full curve, poor fit]
O=c1nc(-c2ccccc2)c2cc(Cl)ccc2[nH]1 | 0.358% | – | –
CCNc1nc(NCC)n2c(SCC(=O)Nc3ccc(F)cc3[N+](=O)[O-])nnc2n1 | 26.8% | – | 0.58 µM [falling, single point]
CC(C)OC(=O)c1c(N)n(CCCN2CCOCC2)c2nc3ccccc3nc12 | 1.66% | – | –
O=C(CSc1nc2ccccc2c(=O)n1Cc1ccco1)N1CCCCCC1 | -42.4% | 16.4 µM [falling, single point] | –
O=C/C(=C\Nc1ccc(Br)cc1)c1nc2ccccc2o1 | 3.7% | – | 0.00517 µM [rising, full curve, poor fit]
C=CCN(CC(O)c1cccc([N+](=O)[O-])c1)C(C)CCc1ccccc1 (stereo not given) | -10.1% | – | –
O=C(c1ccco1)[C@@H]1[C@@H]2C(=O)N(c3ccccc3)C(=O)[C@@H]2C2c3ccccc3C=CN21 (stereo not given in full) | 19% | – | 2.06 µM [rising, full curve, poor fit]
CC(C)Oc1cc2oc(=O)c3c(c2cc1Cl)CCC3 | – | – | 6.51 µM [falling, single point]
CC(C)Oc1ccc2ccccc2c1C=O | -24.2% | – | –
CCCCCc1c(C)nc(Nc2nc(C)c3cc(OC)ccc3n2)[nH]c1=O | 28.5% | – | 7.31 µM [rising, partial curve]
O=C(COC(=O)c1ccc(Cl)nc1)Nc1ccc2c(c1)OCO2 | -10.2% | 6.51 µM [falling, single point] | –
CC(=O)NCCC(=O)Nc1sc2c(c1-c1nc3ccccc3[nH]1)CCCC2 | 15.8% | – | 29.1 µM [rising, single point]
C=C(C)COc1ccc2c(C)c(CC(=O)N3C[C@H]4C[C@@H](C3)c3cccc(=O)n3C4)c(=O)oc2c1C | -20.4% | – | 0.82 µM [rising, full curve, poor fit]

SMILES | cell number change | AC50 [1] | AC50 [2]
CCSc1ccccc1-c1nc(-c2ccncc2)no1 | -35.7% | 14.6 µM [falling, single point] | 20.6 µM [falling, single point]
CCOc1ccc(S(=O)(=O)Nc2cnc3ccccc3c2)cc1 | 11.3% | – | 29.1 µM [falling, single point]
O=C(CSc1nnc(CNC(=O)c2ccccc2F)o1)NC1CCCC1 | 5.1% | – | –
CCOc1ccc(NC(=S)NNC(=O)c2ccc(Br)cc2)cc1 | 13.6% | 1.64 µM [rising, partial curve] | –
Cc1cccc(/C(N)=N/OC(=O)CCC2CCCCC2)c1 | -4.23% | – | 6.51 µM [rising, single point]
CS(=O)(=O)c1ccccc1C(=O)Nc1cccc(-c2nc3ccccc3o2)c1 | – | – | 7.31 µM [falling, partial curve]
O=C1CSC(=O)N1CC(O)COc1ccc(Cl)cc1 (stereo not given) | 9.17% | 0.58 µM [falling, single point] | 0.092 µM [falling, single point]
S=c1[nH]nc(Cc2ccccc2)n1Cc1ccco1 | 70.6% | – | –
CCOc1cc(NC(=O)c2ccco2)c(OCC)cc1NC(=O)CCc1ccc(OC)cc1 | 7.19% | – | –
Cc1nn(Cc2c(F)c(F)c(F)c(F)c2F)c(C)c1NC(=O)c1c([N+](=O)[O-])c(C)nn1C | – | 1.46 µM [rising, partial curve] | 6.51 µM [rising, partial curve]
Oc1ccccc1N1CCN(C(=S)NCCc2ccccc2)CC1 | 23.2% | – | 25.9 µM [rising, single point]
Clc1ccc(CSc2nnc(-c3ccc4c(c3)OCO4)o2)cc1 | 88.7% | 20.6 µM [rising, single point] | –
COCCNC(=O)c1c(N)n(CCC2=CCCCC2)c2nc3ccccc3nc12 | – | 0.259 µM [rising, partial curve, poor fit] | 29.1 µM [falling, single point]
CN1C(=O)/C(=C/c2cc(N=Nc3ccccc3)ccc2O)SC1=S | -34.5% | 14.6 µM [falling, partial curve, poor fit] | 3.66 µM [falling, full curve]
COc1cc(C(=O)Nc2ccccc2N2CCOCC2)ccc1OCc1c(C)noc1C | 12% | – | 2.06 µM [rising, full curve]
CC(C)C[C@@H](CC#N)N1CCN(Cc2ccccc2)CCC1=O | 23.3% | – | 16.4 µM [rising, single point]
CCN1C(=NCC(C)C)N[C@@H](CCc2ccccc2)[C@H](C(=O)NCC(C)C)[C@H]1C | 29.4% | – | 20.6 µM [falling, single point]
Cc1ccc(C(=O)N2CCC(C(=O)Nc3cccc([N+](=O)[O-])c3)CC2)cc1 | – | – | 29.1 µM [falling, single point]
COCCN(C(=O)COC(=O)Cc1cccc(OC)c1)c1c(N)n(CC(C)C)c(=O)[nH]c1=O | 1.81% | – | 32.6 µM [rising, single point]
COc1ccc(C(=O)Nc2nccs2)cc1OC | 21.2% | – | 1.84 µM [rising, partial curve]
COc1ccc(N2CCN(C(=O)CNC(=O)Cc3ccc(Cl)cc3)CC2)cc1 | 32.3% | 0.00461 µM [rising, full curve, poor fit] | 5.17 µM [rising, partial curve]

Quoted at random: two compounds from above.
SMILES | cell number change | AC50 [1] | AC50 [2]
Cc1nn(Cc2c(F)c(F)c(F)c(F)c2F)c(C)c1NC(=O)c1c([N+](=O)[O-])c(C)nn1C | – | 1.46 µM [rising, partial curve] | 6.51 µM [rising, partial curve]
CCOc1ccc(NC(=S)NNC(=O)c2ccc(Br)cc2)cc1 | 13.6% | 1.64 µM [rising, partial curve] | –

Going on with the list:

SMILES | cell number change | AC50 [1] | AC50 [2]
CC1(C)CC(=O)C2=C(C1)OC(N)=C(C#N)C2C1C=CCCC1 (stereo not given) | 94.6% | 16.4 µM [rising, partial curve] | 16.4 µM [rising, partial curve]
O=C(Cc1ccccc1)NC1CCSc2ccccc21 (stereo not given) | -5.49% | – | –
Cc1ccc2[nH]c3c(c2c1)CCCC3NCCO (stereo not given) | 15.5% | – | 29.1 µM [falling, single point]
Cc1cc(SCc2ccccc2)nc(=O)[nH]1 | 24.4% | – | 29.1 µM [rising, single point]
CC(C)(C)C(=O)CN1C(=O)C2(OCCO2)c2ccccc21 | 6.47% | – | 0.326 µM [falling, single point]
CN(Cc1ccccc1)C(=O)COc1cccnc1[N+](=O)[O-] | 21.8% | – | 0.651 µM [rising, full curve]
COc1ccc(OC)c(NC(=O)COC(=O)CCCN2C(=O)c3ccccc3C2=O)c1 | 116% | 32.6 µM [rising, partial curve, poor fit] | –
C/C(=N/NC(=O)CNC(=O)c1ccccn1)c1ccccc1 | -34.4% | 0.58 µM [falling, full curve] | –
CCn1c(CNC(=O)COc2ccc(C(C)C)cc2)nnc1SCC(=O)Nc1ccc(F)cc1 | 10% | – | 2.06 µM [falling, partial curve, poor fit]
Cc1ccc(C2NNC(=O)C2NC(=O)c2ccccc2)cc1 (stereo not given) | 23.8% | – | 1.3 µM [falling, full curve]
NC(=O)CSc1nnc(-c2ccncc2)n1CCc1ccccc1 | -15% | – | 0.0517 µM [falling, full curve, poor fit]
CC(Sc1ccc(Cl)cc1)C(=O)Nc1ccc(S(=O)(=O)N2CCOCC2)cc1 (stereo not given) | -3.58% | – | 29.1 µM [falling, single point]
Clc1ccc(-c2c[n+]3c(n2-c2ccccc2)SCC3)cc1 | – | 0.0731 µM [rising, full curve, poor fit] | –
Cc1ccccc1CNC(=O)C(=O)NCC1OCCCN1S(=O)(=O)c1cccs1 (stereo not given) | 4.62% | – | 23.1 µM [rising, single point]
NS(=O)(=O)c1ccc(CCNC(=O)C(c2ccccc2)c2ccccc2)cc1 | -2.86% | – | 6.51 µM [rising, single point]
O=c1cc(NCc2ccccc2)c2ccccc2o1 | 3.44% | – | 4.11 µM [rising, full curve, poor fit]
C[C@@]1([C@@H](NC(=O)c2cccs2)c2ccc(-c3ccccc3)cc2)C[C@H]1C1CCCCC1 | 22.6% | – | 7.31 µM [rising, partial curve]
CC(C)(CC(=O)O)CC(=O)NCc1c(Cl)cccc1Sc1ccc(Cl)cc1 | 19.3% | 0.517 µM [falling, single point] | 0.58 µM [falling, single point]
COC(=O)CCc1ccc(O)cc1 | 7.68% | – | 6.51 µM [rising, single point]

Source: PubChem BioAssay AID2685 (National Center for Advancing Translational Sciences (NCATS), 2010)
